Reference: patent publication US5445935

Target: tryptophan repressor (TrpR) (UniProt P0A881)
Experiment: EMSA
Conditions: CITED Carey 1988 gel retardation, operator target sequence, with tryptophan; purified recombinant protein

Q: For “CTTGCACTAGTTAACTAGTCAGCAA (double strand) [fluorescein-labeled 25-mer trp operator duplex]”, which Kd is on record?
A: 0.5 nM

Construct, isoform or probe ends are uncertain for at least one entry.
